Consider 2 substances from paper PMC10709582.

Chains of the proteins cited; added tags and fusions are not shown.
UniProt Q8N122: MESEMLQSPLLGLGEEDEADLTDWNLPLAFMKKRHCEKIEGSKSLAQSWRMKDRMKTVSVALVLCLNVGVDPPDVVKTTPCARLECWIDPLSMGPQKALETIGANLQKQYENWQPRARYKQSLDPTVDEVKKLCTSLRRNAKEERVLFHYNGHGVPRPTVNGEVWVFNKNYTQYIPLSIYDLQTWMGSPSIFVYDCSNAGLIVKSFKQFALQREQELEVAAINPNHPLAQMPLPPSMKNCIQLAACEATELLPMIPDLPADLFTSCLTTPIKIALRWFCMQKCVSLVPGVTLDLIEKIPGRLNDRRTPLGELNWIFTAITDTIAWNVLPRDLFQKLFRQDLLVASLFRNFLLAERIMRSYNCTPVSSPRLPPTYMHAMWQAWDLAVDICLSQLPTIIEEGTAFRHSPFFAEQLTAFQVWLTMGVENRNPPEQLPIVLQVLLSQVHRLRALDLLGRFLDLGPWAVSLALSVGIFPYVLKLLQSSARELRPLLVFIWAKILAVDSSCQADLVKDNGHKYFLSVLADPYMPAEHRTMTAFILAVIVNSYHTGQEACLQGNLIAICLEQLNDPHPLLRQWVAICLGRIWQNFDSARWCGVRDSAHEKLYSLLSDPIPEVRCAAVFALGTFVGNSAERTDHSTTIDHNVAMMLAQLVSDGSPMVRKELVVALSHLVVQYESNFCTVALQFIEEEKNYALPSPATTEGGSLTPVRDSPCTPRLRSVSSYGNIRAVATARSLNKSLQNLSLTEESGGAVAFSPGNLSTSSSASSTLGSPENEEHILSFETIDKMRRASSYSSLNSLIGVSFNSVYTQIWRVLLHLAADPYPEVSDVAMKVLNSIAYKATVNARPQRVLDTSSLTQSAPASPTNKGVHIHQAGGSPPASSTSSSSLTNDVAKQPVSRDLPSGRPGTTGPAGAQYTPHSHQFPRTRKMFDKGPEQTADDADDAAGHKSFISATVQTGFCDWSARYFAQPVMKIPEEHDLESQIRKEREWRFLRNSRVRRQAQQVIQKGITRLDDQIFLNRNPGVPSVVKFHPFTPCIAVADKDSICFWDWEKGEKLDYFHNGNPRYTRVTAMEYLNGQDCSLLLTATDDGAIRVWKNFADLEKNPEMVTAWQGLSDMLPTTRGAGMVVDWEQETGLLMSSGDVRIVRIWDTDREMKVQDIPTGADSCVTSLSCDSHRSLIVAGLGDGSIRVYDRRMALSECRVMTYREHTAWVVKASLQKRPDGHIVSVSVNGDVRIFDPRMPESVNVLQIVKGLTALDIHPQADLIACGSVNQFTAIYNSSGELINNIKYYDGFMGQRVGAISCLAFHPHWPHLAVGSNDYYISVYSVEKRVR

These are yes or no findings as the source states them, for the method shown. Binding seen in cells or lysates may run through a third protein. Some binding calls cover weakened binding; strength is not graded here. Sequences can lack the tags named with a protein.

One assay concerns the target T1, Flag-FilGAP (WT) (UniProt Q8N264).
T1 sequence: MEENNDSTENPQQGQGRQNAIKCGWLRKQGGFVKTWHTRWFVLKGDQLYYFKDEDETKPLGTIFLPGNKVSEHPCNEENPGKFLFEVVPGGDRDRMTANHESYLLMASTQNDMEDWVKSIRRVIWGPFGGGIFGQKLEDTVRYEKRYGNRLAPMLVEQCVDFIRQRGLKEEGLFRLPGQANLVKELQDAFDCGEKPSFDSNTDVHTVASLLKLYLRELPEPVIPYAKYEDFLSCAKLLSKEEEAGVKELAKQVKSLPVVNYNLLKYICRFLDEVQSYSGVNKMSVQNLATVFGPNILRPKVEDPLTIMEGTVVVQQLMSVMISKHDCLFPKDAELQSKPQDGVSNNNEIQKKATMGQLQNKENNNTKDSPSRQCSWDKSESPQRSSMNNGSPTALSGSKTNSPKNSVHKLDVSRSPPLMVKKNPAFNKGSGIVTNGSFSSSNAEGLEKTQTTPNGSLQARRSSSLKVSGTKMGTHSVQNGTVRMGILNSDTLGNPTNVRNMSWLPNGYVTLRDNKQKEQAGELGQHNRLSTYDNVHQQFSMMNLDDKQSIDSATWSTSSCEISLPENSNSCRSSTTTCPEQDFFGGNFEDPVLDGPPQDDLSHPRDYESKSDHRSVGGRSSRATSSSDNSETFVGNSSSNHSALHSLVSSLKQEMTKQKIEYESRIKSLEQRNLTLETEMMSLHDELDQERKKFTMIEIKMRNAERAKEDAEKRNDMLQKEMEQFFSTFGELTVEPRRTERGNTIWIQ
As to the kind of experiment: co-IP; HEK293T cells co-transfected; lysed in CHAPS buffer; anti-Flag agarose beads, 1 h at 4 °C; blot with anti-Raptor or anti-Rictor antibody.

In assay [1] the target is T2, GST-FilGAP (373-748aa) (UniProt Q8N264).
T2 sequence: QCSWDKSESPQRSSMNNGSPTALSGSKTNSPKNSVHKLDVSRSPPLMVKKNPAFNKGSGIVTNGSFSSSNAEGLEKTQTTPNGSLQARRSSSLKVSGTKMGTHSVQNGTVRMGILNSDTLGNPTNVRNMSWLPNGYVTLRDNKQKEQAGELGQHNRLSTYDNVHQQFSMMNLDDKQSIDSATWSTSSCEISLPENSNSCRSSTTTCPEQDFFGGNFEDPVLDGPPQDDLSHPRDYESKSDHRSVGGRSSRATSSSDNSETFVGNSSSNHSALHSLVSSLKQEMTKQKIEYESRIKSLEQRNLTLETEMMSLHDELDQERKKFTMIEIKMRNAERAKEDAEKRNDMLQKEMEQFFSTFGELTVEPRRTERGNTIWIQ
As to the kind of experiment: pull-down; GST-FilGAP (373-748aa) on glutathione sepharose with HEK293T cells lysed in buffer containing Triton X-100 (disrupts the mTOR complexes); only the target purified.

Assay [2] deals with T2, GST-FilGAP (373-748aa). In words: pull-down; purified GST-FilGAP (373-748aa) on glutathione Sepharose with HEK293T lysate in CHAPS buffer (0.3% CHAPS, 0.1 M NaCl, pH 7.5), 60 min at 4 °C; endogenous proteins blotted; also after siRNA against Raptor or Rictor, 100 nM Rapamycin or 500 nM Torin-1 for 1 h, or starvation in EBSS then DMEM with or without insulin; only the target purified.

Turning to Myc-Raptor (from UniProt Q8N122 1-1335), the binding entry in the assay with Flag-FilGAP (WT) was “binds”.

Turning to “Raptor (endogenous, HEK293T) (from UniProt Q8N122 1-1335)”, the binding result in the assay with GST-FilGAP (373-748aa) [1] and with GST-FilGAP (373-748aa) [2] was “binds” in each case.
